Molecules are shown by their SMILES. Some of the results follow. Single values are uncertain, as repeats are few or missing.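 Primary human fetal astrocytes engulfed labelled rat cortical synaptosomes, measured as a red/green ratio corrected for calcein live-cell signal and scaled to the plate median. Toxicity meant calcein falling over 30%; decreased phagocytosis meant below 70% of median above 5 µM.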

This experiment concerns Human fetal astrocytes. Kind of experiment: synaptosome phagocytosis (pHrodo/calcein intensity ratio) relative to plate median of data wells; higher = more phagocytosis. The note with it: 1.39 µM; 24 h.
As to `NC(=O)c1cccnc1`, the synaptosome phagocytosis was 122%.

As to `C[C@H]1O[C@H](O[C@H]2[C@H](O)[C@@H](O)[C@@H](O[C@@H]([C@H](O)[C@@H](O)C=O)[C@H](O)CO)O[C@@H]2CO)[C@H](O)[C@@H](O)[C@@H]1N[C@H]1C=C(CO)[C@@H](O)[C@H](O)[C@H]1O`, the synaptosome phagocytosis is 104%.

For `CCN(CC)CCOC(=O)C(c1ccccc1)c1ccccc1`, the synaptosome phagocytosis was 79.7%.

Take `N[C@@H](CSCSC[C@H](N)C(=O)O)C(=O)O`: the synaptosome phagocytosis was 120%.

For `C=CC1=C(C)/C(=C/c2[nH]c(Cc3[nH]c(/C=C4\NC(=O)C(C)=C4C=C)c(C)c3CCC(=O)O)c(CCC(=O)O)c2C)NC1=O`, the synaptosome phagocytosis was 150%.

In the case of `C[C@]12CC[C@@H]3c4ccc(O)cc4CC[C@H]3[C@@H]1CC[C@@H]2OC(=O)CCC1CCCC1`, the synaptosome phagocytosis was 80%.

As to `C[C@@H]1C(=O)O[C@H]2C[C@@]34[C@H]5C[C@@H](C(C)(C)C)[C@]36[C@@H](OC(=O)[C@@H]6O)O[C@@]4(C(=O)O5)[C@]21O`, the synaptosome phagocytosis is 144%.

For the compound `CN(C)CCOC(c1ccc(Cl)cc1)c1ccccn1` (stereo not given), the synaptosome phagocytosis was 103%.

Regarding `COc1ccc(/C=C/C(=O)O)cc1OC`, the synaptosome phagocytosis was 84.2%.

With `COc1ccc2c(c1)O[C@H]1c3ccc(OC)cc3OC[C@@H]21`, the synaptosome phagocytosis was 124%.

As to `CCCCC(CC)CN=C(N)N=C(N)NCCCCCCNC(N)=NC(N)=NCC(CC)CCCC` (stereo not given), the synaptosome phagocytosis was 97.7%.

For the compound `Cc1ncc(C[n+]2csc(CCO)c2C)c(N)n1`, the synaptosome phagocytosis is 107%.

In the case of `O=C(/C=C/c1ccccc1)c1ccc(O[C@@H]2O[C@H](CO)[C@@H](O)[C@H](O)[C@H]2O)cc1O`, the synaptosome phagocytosis is 126%.

Consider `COc1ccc(C(C)=O)c(O)c1`, for which the synaptosome phagocytosis is 86.3%.

For `COc1c2ccoc2cc2oc(C)cc(=O)c12`, the synaptosome phagocytosis is 131%.

As for `COCC1=C(C(=O)OC(C)OC(=O)OC(C)C)N2C(=O)[C@@H](NC(=O)/C(=N\OC)c3csc(N)n3)[C@H]2SC1` (stereo not given in full), the synaptosome phagocytosis is 87.4%.

As for `C[C@]12CCC(=O)C=C1CC[C@@H]1[C@@H]2[C@@H](O)C[C@@]2(C)[C@H]1CC[C@]2(O)C(=O)COP(=O)(O)O`, the synaptosome phagocytosis was 129%.

As to `CC1(C)[C@@H](OC(=O)CCC(=O)O)CC[C@]2(C)[C@H]3C(=O)C=C4[C@@H]5C[C@@](C)(C(=O)O)CC[C@]5(C)CC[C@@]4(C)[C@]3(C)CC[C@@H]12`, the synaptosome phagocytosis is 95.3%.

Take `C/C=C/c1ccc(OC)cc1`: the synaptosome phagocytosis was 77.1%.

Regarding `CCOc1cc(CC(=O)N[C@@H](CC(C)C)c2ccccc2N2CCCCC2)ccc1C(=O)O`, the synaptosome phagocytosis was 107%.

`CC(=O)c1ccc[nH]1`: the synaptosome phagocytosis was 120%.

Take `O=C(Cn1ccnc1[N+](=O)[O-])NCCO`: the synaptosome phagocytosis is 106%.

In the case of `NC(=O)c1ncn([C@@H]2O[C@H](CO)[C@@H](O)[C@H]2O)c1N`, the synaptosome phagocytosis was 130%.

As for `COc1cc(/C=C/C(=O)CC(=O)/C=C/c2ccc(O)c(OC)c2)ccc1O`, the synaptosome phagocytosis is 101%.

`COc1cc(O)c(C(C)=O)c(O)c1`: the synaptosome phagocytosis was 86.1%.

As to `CC(=O)O[C@@H]1CC[C@@]2(C)C(C[C@@H](OC(C)=O)[C@@]3(C)C4=CC(=O)O[C@@H](c5ccoc5)[C@]4(C)CCC23)C1(C)C` (stereo partly drawn) [3alpha-ACETOXYDIHYDRODEOXYGEDUNIN], the synaptosome phagocytosis was 104%.

As to `CN(C)CCCOc1nn(Cc2ccccc2)c2ccccc12`, the synaptosome phagocytosis was 100%.

Consider `O=c1cc(-c2ccccc2)oc2cccc(O)c12`, for which the synaptosome phagocytosis is 102%.

In the case of `C1CNCCN1`, the synaptosome phagocytosis was 98.9%.

For the compound `OC[C@@H](O)[C@@H](O[C@@H]1O[C@H](CO)[C@@H](O)[C@H](O)[C@H]1O)[C@H](O)[C@@H](O)CO`, the synaptosome phagocytosis was 82.1%.

For the compound `CC(CCc1ccc(O)cc1)NCCc1ccc(O)c(O)c1` (stereo not given), the synaptosome phagocytosis is 56.6%.

As to `Oc1cccc(O)c1`, the synaptosome phagocytosis was 108%.

Take `COc1cc(O)c(C)c(O)c1`: the synaptosome phagocytosis was 115%.

As for `CCOC(=O)Nc1nc2ccccc2[nH]1`, the synaptosome phagocytosis is 140%.

With `COc1cc2c(cc1OC)-c1c(oc3cc(O)cc(O)c3c1=O)CO2`, the synaptosome phagocytosis was 101%.

With `Nc1cc(C(Cl)=C(Cl)Cl)c(S(N)(=O)=O)cc1S(N)(=O)=O`, the synaptosome phagocytosis was 106%.

With `N[C@@H](C(=O)O)[C@@H](O)[C@H](O)[C@H](O)CO`, the synaptosome phagocytosis was 145%.

Take `C[C@@H]1CC[C@@]2(OC1)O[C@H]1C[C@H]3[C@@H]4CC=C5C[C@@H](O)CC[C@]5(C)[C@H]4CC[C@]3(C)[C@H]1[C@@H]2C`: the synaptosome phagocytosis is 100%.

On to `Cc1cc(-c2ccccc2)nnc1NCCN1CCOCC1`, for which the synaptosome phagocytosis is 91.9%.

In the case of `COc1cc(-c2cc(=O)c3c(O)c(OC)c(OC)c(OC)c3o2)cc(OC)c1OC`, the synaptosome phagocytosis is 94.3%.

The values above are taken from the supplement of paper PMC10689618.
